Source: patent US20150098955A1 (VIELA BIO, published 2015)
Results are given in words; binding and its absence hold for the method and conditions named. Some binding calls cover weakened binding; strength is not graded here. For part of these data: Sequences can lack the tags named with a protein.

Protein sequences, listed by entry. Tags and fused reporters are not part of them. Residues count along the entry.
UniProt P29965, residues 47-261: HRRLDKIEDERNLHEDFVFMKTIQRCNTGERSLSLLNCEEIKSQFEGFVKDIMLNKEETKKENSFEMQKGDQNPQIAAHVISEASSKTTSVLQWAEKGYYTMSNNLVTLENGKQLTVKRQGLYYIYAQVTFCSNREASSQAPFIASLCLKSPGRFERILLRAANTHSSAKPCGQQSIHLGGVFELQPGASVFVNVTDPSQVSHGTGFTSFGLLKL

These binders were tested against Recombinant human CD40L (Human MegaCD40L; Axxora) (human) (UniProt P29965) (assay: plate binding assay: anti-His capture of Tn3, biotinylated human MegaCD40L, SA-HRP (original variant as reference)).

Binder	binding
Clone 309 - Parental clone isolated from naive Tn3 library (designed binder, Secreted His8-tagged form purified on Ni-NTA) AIEVKDVTDTTALITWSDEFGHYDGCELTYGIKDVPGDRTTIDLWWHSAWYSIGNLKPDTEYEVSLICYTDQEAGNPAKETFTTGGGTLGHHHHHHHH	binds
Clone 311 - Parental clone isolated from naive Tn3 library (designed binder) AIEVKDVTDTTALITWTNRSSYYNLHGCELTYGIKDVPGDRTTIDLSSPYVHYSIGNLKPDTEYEVSLICLTTDGTYSNPAKETFTTGGGTLGHHHHHHHH	binds

What follows are binders tested against Recombinant human CD40L (Human MegaCD40L; Axxora) (human) (UniProt P29965) (assay: capture ELISA: His-tagged Tn3 captured on anti-His antibody, biotinylated Human MegaCD40L detected with SA-HRP).

Binder	binding
Clone 309 - Parental clone isolated from naive Tn3 library (designed binder, Secreted His8-tagged form purified on Ni-NTA) AIEVKDVTDTTALITWSDEFGHYDGCELTYGIKDVPGDRTTIDLWWHSAWYSIGNLKPDTEYEVSLICYTDQEAGNPAKETFTTGGGTLGHHHHHHHH	binds
Clone 311 - Parental clone isolated from naive Tn3 library (designed binder) AIEVKDVTDTTALITWTNRSSYYNLHGCELTYGIKDVPGDRTTIDLSSPYVHYSIGNLKPDTEYEVSLICLTTDGTYSNPAKETFTTGGGTLGHHHHHHHH	binds
311 variant with the FG loop changed to the parent Tn3 FG loop sequence (designed binder) AIEVKDVTDTTALITWTNRSSYYNLHGCELTYGIKDVPGDRTTIDLSSPYVHYSIGNLKPDTEYEVSLICRRGDMSSNPAKETFTTGGGTLGHHHHHHHH	binds

What follows are binders tested against Recombinant human CD40L (Human MegaCD40L; Axxora) (human) (UniProt P29965) (assay: soluble protein screening assay for CD40L binding (anti-His capture, biotinylated human MegaCD40L)).

Binder	binding
Clone 340 - Affinity Mature variant (designed binder, Secreted His8-tagged form) AIEVKDVTDTTALITWSDDFDNYEWCELTYGIKDVPGDRTTIDLWYHMAWYSIGNLKPDTEYEVSLICRRGDMSSNPAKETFTTGGGTLGHHHHHHHH	binds
Clone 341 - Affinity Mature variant (designed binder) AIEVKDVTDTTALITWSDDFADYVWCELTYGIKDVPGDRTTIDLWWHSAWYSIGNLKPDTEYEVSLICRRGDMSSNPAKETFTTGGGTLGHHHHHHHH	binds
Clone 342 - Affinity Mature variant (w/WT FG loop) (designed binder, Secreted His8-tagged form) AIEVKDVTDTTALITWSDDFGEYVWCELTYGIKDVPGDRTTIDLWYHHAHYSIGNLKPDTEYEVSLICRRGDMSSNPAKETFTTGGGTLGHHHHHHHH	binds
Clone 343 - Affinity Mature variant (designed binder, Secreted His8-tagged form) AIEVKDVTDTTALITWLDDWGSYHVCELTYGIKDVPGDRTTIDLWYHQAWYSIGNLKPDTEYEVSLICRRGDMSSNPAKETFTTGGGTLGHHHHHHHH	binds
Clone 344 - Affinity Mature variant (designed binder) AIEVKDVTDTTALITWSDEVGDYVVCELTYGIKDVPGDRTTIDLWYHMAWYSIGNLKPDTEYEVSLICRRGDMSSNPAKETFTTGGGTLGHHHHHHHH	binds
Clone 345 - Affinity Mature variant (designed binder, Secreted His8-tagged form) AIEVKDVTDTTALITWSDDFAEYVGCELTYGIKDVPGDRTTIDLWWHSAWYSIGNLKPDTEYEVSLICRRGDMSSNPAKETFTTGGGTLGHHHHHHHH	binds
Clone 346 - Affinity Mature variant (designed binder, Secreted His8-tagged form) AIEVKDVTDTTALITWSDDFEEYVVCELTYGIKDVPGDRTTIDLWWHSAWYSIGNLKPDTEYEVSLICRRGDMSSNPAKETFTTGGGTLGHHHHHHHH	binds
Clone 347 - Affinity Mature variant (designed binder, Secreted His8-tagged form) AIEVKDVTDTTALITWSDEVGQYVGCELTYGIKDVPGDRTTIDLWYHMAWYSIGNLKPDTEYEVSLICRRGDMSSNPAKETFTTGGGTLGHHHHHHHH	binds
Clone 348 - Affinity Mature variant (designed binder, Secreted His8-tagged form) AIEVKDVTDTTALITWSDDIGLYVWCELTYGIKDVPGDRTTIDLWFHQAWYSIGNLKPDTEYEVSLICRRGDMSSNPAKETFTTGGGTLGHHHHHHHH	binds
Clone 349 - Affinity Mature variant (designed binder, Secreted His8-tagged form) AIEVKDVTDTTALITWSDEHAEFIGCELTYGIKDVPGDRTTIDLWWHSAWYSIGNLKPDTEYEVSLICRRGDMSSNPAKETFTTGGGTLGHHHHHHHH	binds
Clone 311K4E_1 - Clone Variant from second round of affinity maturation (designed binder) AIEVEDVTDTTALITWINRSYYADLHGCELTYGIKDVPGDRTTIDLDQIYVHYSIGNLKPDTKYEVSLICLTTDGTYSNPAKETFTTGGGTLGHHHHHHHH	binds
Clone 311K4E_2 - Clone Variant from second round of affinity maturation (designed binder) AIEVEDVTDTTALITWTNRSSYSHLDGCELTYGIKDVPGDRTTIDLSAAIYVHYSIGNLKPDTEYEVSLICLTTDGTYSNPAKETFTTGGGTLGHHHHHHHH	binds
Clone 311K4E_3 - Clone Variant from second round of affinity maturation (designed binder, Secreted His8-tagged form) AIEVEDVTDTTALITWINRSSYHNFPHCELAYGIKDVPGDRTTIDLNSPYVHYSIGNLKPDTEYEVSLICLTTDGTYSNPAKETFTTGGGTLGHHHHHHHH	binds
Clone 311K4E_11 - Clone Variant from second round of affinity maturation (designed binder, Secreted His8-tagged form) AIEVEDVTDTTALITWTNRSSYANLPGCELTYGIKDVPGDRTTIDLNSPYVHYSIGNLKPDTEYEVSLICLTTDGTYSNPAKETFTTGGGTLGHHHHHHHH	binds
Clone 311K4E_12 - Clone Variant from second round of affinity maturation (designed binder, Secreted His8-tagged form) AIEVEDVTDTTALITWTNRSSYSNLHGCELAYGIKDVPGDRTTIDLNQPYVHYSIGNLKPDTEYEVSLICLTTDGTYNNPAKETFTTGGGTLGHHHHHHHH	binds
Clone 311K4E_4 - Clone Variant from second round of affinity maturation (designed binder) AIEVEDVTDTTALITWTNRSSYSNHLGCELAYGIKDVPGDRTTIDLNNIYVHYSIGNLKPDTEYEVSLICLTTDGTYSNPAKETFTTGGGTLGHHHHHHHH	binds
Clone 311K4E_5 - Clone Variant from second round of affinity maturation (designed binder) AIEVEDVTDTTALITWTNRSSYSNFHGCELAYGIKDVPGDRTTIDLNSPYVHYSIGNLKPDTEYEVSLICLTTDGTYSNPAKETFTTGGGTLGHHHHHHHH	binds
Clone 311K4E_7 - Clone Variant from second round of affinity maturation (designed binder) AIEVEDVTDTTALITWTNRSFYSNLHGCELTYGIKDVPGDRTTIDLNQPYVHYSIGNLKPDTEYEVSLICLTTDGTYSNPAKETFTTGGGTLGHHHHHHHH	binds
Clone 311K4E_8 - Clone Variant from second round of affinity maturation (designed binder) AIEVEDVTDTTALITWTNRSSYAYLHGCELAYGIKDVPGDRTTIDLNQPYVHYSIGNLKPDTEYEVSLICLTTDGTYSNPAKETFTTGGGTLGHHHHHHHH	binds
Clone 311K4E_9 - Clone Variant from second round of affinity maturation (designed binder) AIEVEDVTDTTALITWINRSSYANLHGCELTYGIKDVPGDRTTIDLSSPYVHYSIGNLKPDTEYEVSLICLTTDGTYSNPAKETFTTGGGTLGHHHHHHHH	binds
Clone 311K4E_10 - Clone Variant from second round of affinity maturation (designed binder) AIEVEDVTDTTALITWTNRSSYANYHGCELAYGIKDVPGDRTTIDLNQPYVHYSIGNLKPDTEYEVSLICLTTDGTYSNPAKETFTTGGGTLGHHHHHHHH	binds
Clone 311K4E_13 - Clone Variant from second round of affinity maturation (designed binder) AIEVEDVTDTTALITWINRSSYANLHGCELTYGIKDVPGDRTTIDLNSPYVHYSIGNLKPDTEYEVSLICLTTDGTYSNPAKETFTTGGGTLGHHHHHHHH	binds
Clone 311K4E_14 - Clone Variant from second round of affinity maturation (designed binder) AIEVEDVTDTTALITWTARSAYSHHHYCELTYGIKDVPGDRTTIDLRQPYVHYSIGNLKPDTEYEVSLICLTTDGTYSNPAKETFTTGGGTLGHHHHHHHH	binds
Clone 311K4E_15 - Clone Variant from second round of affinity maturation (designed binder, Secreted His8-tagged form) AIEVEDVTDTTALITWTNRSSYANYHHCELTYGIKDVPGDRTTIDLELYVHYSIGNLKPDTEYEVSLICLTTDGTYSNPAKETFTTGGGTLGHHHHHHHH	binds
Clone 311K4E_16 - Clone Variant from second round of affinity maturation (designed binder) AIEVEDVTDTTALITWTNRSSYSDLPGCELTYGIKDVPGDRTTIDLSSPYVHYSIGNLKPDTEYEVSLICLTTDGTYSNPAKETFTTGGGTLGHHHHHHHH	binds
Clone 311K4E_19 - Clone Variant from second round of affinity maturation (designed binder) AIEVEDVTDTTALITWTHRSAYSNHSFCELTYGIKDVPGDRTTIDLNTPYVHYSIGNLKPDTEYEVSLICLTTDGTYSNPAKETFTTGGGTLGHHHHHHHH	binds
Clone 311K4E_20 - Clone Variant from second round of affinity maturation (designed binder) AIEVEDVTDTTALITWTNRSLYANFHGCELTYGIKDVPGDRTTIDLEQVYVHYSIGNLKPDTEYEVSLICLTTDGTYSNPAKETFTTGGGTLGHHHHHHHH	binds
Clone 311K4E_21 - Clone Variant from second round of affinity maturation (designed binder) AIEVEDVTDTTALITWTNRSSYSNLPGCELTYGIKDVPGDRTTIDLNQVYVHYSIGNLKPDTEYEVSLICLTTDGTYSNPAKETFTTGGGTLGHHHHHHHH	binds

Each binder was assayed against Recombinant human CD40L (Human MegaCD40L; Axxora) (human) (UniProt P29965) (assay: plate binding assay: anti-His capture of Tn3, biotinylated human MegaCD40L, SA-HRP).

Binder	binding
311 variant with the FG loop changed to the parent Tn3 FG loop sequence (designed binder) AIEVKDVTDTTALITWTNRSSYYNLHGCELTYGIKDVPGDRTTIDLSSPYVHYSIGNLKPDTEYEVSLICRRGDMSSNPAKETFTTGGGTLGHHHHHHHH	binds

The binders below were run against Recombinant human soluble CD40L (113-261, UNIPROT: P29965) with N-terminal 6xHis-tag (human) (UniProt P29965) (assay: co-crystal structure).

Binder	binding
309 monomer scaffold, tagless (for crystallization) (designed binder) IEVKDVTDTTALITWSDEFGHYDGCELTYGIKDVPGDRTTIDLWWHSAWYSIGNLKPDTEYEVSLICYTDQEAGNPAKETFTT	binds
311K4E-12 monomer scaffold, tagless (for crystallization) (designed binder) IEVEDVTDTTALITWTNRSSYSNLHGCELAYGIKDVPGDRTTIDLNQPYVHYSIGNLKPDTEYEVSLICLTTDGTYNNPAKETFTT	binds
342 monomer scaffold, tagless (for crystallization) (designed binder) IEVKDVTDTTALITWSDDFGEYVWCELTYGIKDVPGDRTTIDLWYHHAHYSIGNLKPDTEYEVSLICRRGDMSSNPAKETFTT	binds

What follows are binders tested against Recombinant human soluble CD40L (113-261, UNIPROT: P29965) with N-terminal 6xHis-tag (human) (UniProt P29965) (assay: co-crystal structure of 342 and 311K4E-12 with CD40L).

Binder	binding
311K4E-12 monomer scaffold, tagless (for crystallization) (designed binder) IEVEDVTDTTALITWTNRSSYSNLHGCELAYGIKDVPGDRTTIDLNQPYVHYSIGNLKPDTEYEVSLICLTTDGTYNNPAKETFTT	binds
342 monomer scaffold, tagless (for crystallization) (designed binder) IEVKDVTDTTALITWSDDFGEYVWCELTYGIKDVPGDRTTIDLWYHHAHYSIGNLKPDTEYEVSLICRRGDMSSNPAKETFTT	binds
